Results are given in words; binding and its absence hold for the method and conditions named. In cells and extracts the contact can be indirect. For some assays here: Where a sequence is shown, tags or fusion partners need not be part of it.

By UniProt entry, the sequences of proteins in these tests, tags left out. Where a name states a change or a piece, a line headed by the entry shows the natural chain unless it says otherwise.
UniProt P13681: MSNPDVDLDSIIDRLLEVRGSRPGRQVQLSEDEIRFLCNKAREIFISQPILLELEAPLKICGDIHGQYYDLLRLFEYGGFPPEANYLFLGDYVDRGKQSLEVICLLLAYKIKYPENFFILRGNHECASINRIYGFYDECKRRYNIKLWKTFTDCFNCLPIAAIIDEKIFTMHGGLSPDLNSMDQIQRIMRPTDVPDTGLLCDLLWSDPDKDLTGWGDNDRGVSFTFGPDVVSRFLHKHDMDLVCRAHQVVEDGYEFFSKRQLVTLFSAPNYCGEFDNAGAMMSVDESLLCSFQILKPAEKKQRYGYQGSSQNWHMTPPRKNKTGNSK
UniProt Q96UP3: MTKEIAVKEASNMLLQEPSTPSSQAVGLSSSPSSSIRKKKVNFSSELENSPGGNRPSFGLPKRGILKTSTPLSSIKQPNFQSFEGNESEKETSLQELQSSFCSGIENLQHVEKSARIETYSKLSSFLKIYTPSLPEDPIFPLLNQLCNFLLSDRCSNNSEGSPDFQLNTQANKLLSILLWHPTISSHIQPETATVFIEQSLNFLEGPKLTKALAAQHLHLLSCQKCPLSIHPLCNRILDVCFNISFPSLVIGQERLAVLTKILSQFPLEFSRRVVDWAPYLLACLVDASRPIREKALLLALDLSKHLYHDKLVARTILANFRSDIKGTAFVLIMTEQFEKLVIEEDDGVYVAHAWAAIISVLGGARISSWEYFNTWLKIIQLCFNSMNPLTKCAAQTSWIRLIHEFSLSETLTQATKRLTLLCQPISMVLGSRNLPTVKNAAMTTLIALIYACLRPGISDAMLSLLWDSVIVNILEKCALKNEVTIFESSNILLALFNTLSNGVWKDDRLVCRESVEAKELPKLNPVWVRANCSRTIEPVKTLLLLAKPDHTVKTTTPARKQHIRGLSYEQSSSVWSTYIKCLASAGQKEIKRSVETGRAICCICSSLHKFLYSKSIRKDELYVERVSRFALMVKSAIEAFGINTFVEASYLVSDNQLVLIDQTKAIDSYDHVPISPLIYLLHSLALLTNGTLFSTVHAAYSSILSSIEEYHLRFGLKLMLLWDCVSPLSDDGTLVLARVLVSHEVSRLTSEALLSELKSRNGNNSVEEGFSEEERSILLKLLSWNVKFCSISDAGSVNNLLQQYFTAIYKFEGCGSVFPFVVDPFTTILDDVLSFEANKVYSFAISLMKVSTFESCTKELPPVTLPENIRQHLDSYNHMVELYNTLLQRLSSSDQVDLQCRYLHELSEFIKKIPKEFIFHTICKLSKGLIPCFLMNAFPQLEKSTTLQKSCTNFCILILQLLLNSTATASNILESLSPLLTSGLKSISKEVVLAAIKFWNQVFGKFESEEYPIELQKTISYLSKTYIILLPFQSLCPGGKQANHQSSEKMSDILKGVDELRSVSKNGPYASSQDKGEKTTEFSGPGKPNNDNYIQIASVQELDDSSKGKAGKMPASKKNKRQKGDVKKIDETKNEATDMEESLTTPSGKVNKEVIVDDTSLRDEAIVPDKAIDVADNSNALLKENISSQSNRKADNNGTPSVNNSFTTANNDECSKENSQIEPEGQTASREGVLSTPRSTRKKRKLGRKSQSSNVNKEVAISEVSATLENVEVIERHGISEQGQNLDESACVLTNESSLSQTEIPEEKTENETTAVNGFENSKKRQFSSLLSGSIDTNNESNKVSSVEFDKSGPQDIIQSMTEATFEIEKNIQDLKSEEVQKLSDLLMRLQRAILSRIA

This is an account of results in publication PMC9909590.

Assay [1] deals with T1, Sds21-13Myc (PP1) (Schizosaccharomyces pombe) (UniProt P23880).
T1 sequence: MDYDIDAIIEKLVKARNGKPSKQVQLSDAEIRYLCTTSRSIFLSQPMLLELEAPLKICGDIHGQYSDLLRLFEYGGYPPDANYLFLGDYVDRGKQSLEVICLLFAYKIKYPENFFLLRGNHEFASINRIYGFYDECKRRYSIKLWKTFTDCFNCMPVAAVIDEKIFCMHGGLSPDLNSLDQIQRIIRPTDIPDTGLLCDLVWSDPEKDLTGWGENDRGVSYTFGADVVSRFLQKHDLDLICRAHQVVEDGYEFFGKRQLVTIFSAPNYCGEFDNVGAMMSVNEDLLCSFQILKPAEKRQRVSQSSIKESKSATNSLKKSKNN
Nature of the assay: co-IP; extracts of S. pombe cells expressing both Flag-tagged Rif1 and Myc-tagged PP1; PP1 immunoprecipitated with anti-c-Myc antibody on Protein G Dynabeads, 1 h; IP buffer 20 mM HEPES-KOH pH 7.6, 50 mM potassium acetate, 5 mM magnesium acetate, 0.1 M sorbitol, 0.1% Triton X-100, 2 mM DTT; co-immunoprecipitated Rif1 detected by blot.

Assay [2] deals with Dis2-13Myc (PP1) (Schizosaccharomyces pombe) (UniProt P13681). Described as above.

“rif1PP1bsmut-Flag3 (PP1-binding site mutant of Rif1) (from UniProt Q96UP3)”: the binding result in assay [1] and in assay [2] was “no binding” each time.
